Drawing on publication PMC10575921 (Nature Communications, 2023), this text covers IC50 for one molecule.

The experiment concerns human primary hepatocytes. Put plainly: cells. The note with it: Hepatocyte.

Broadly, the IC50 is the concentration needed to halve the response being measured. The low end stands for inhibition by little substance, the high end for a need for much substance.

Molecule `CC/C(=C(\c1ccccc1)c1ccc(OCCN(C)C)cc1)c1ccccc1` [Tamoxifen] came in with an IC50 of 8.01 µM.
